For 15 targets, NP40-soluble protein abundance results are on record in the supplement of paper PMC6411743.

By UniProt entry, the sequences of proteins in these tests, tags left out. Where a name states a change or a piece, a line headed by the entry shows the natural chain unless it says otherwise.
UniProt P38919, whole entry: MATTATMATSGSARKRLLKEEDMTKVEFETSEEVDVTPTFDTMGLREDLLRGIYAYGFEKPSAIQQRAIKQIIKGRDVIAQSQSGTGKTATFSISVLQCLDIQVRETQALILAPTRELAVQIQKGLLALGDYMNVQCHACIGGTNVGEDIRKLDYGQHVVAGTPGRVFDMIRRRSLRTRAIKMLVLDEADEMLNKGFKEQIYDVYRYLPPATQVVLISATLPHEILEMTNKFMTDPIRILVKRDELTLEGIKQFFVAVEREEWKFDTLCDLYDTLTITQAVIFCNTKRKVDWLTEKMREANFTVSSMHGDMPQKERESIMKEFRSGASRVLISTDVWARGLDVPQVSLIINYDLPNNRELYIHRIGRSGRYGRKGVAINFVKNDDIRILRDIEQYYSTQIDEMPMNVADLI
UniProt P39748, whole entry: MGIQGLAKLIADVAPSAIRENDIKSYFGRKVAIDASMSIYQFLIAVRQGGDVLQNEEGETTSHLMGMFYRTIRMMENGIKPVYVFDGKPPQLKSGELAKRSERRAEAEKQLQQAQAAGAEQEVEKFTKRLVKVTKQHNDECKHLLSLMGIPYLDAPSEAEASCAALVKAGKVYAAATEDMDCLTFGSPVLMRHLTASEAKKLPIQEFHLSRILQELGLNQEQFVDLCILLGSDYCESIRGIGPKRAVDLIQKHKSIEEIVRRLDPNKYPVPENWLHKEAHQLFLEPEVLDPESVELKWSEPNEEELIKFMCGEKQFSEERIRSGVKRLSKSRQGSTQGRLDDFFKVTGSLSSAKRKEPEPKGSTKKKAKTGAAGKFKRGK
UniProt P47897: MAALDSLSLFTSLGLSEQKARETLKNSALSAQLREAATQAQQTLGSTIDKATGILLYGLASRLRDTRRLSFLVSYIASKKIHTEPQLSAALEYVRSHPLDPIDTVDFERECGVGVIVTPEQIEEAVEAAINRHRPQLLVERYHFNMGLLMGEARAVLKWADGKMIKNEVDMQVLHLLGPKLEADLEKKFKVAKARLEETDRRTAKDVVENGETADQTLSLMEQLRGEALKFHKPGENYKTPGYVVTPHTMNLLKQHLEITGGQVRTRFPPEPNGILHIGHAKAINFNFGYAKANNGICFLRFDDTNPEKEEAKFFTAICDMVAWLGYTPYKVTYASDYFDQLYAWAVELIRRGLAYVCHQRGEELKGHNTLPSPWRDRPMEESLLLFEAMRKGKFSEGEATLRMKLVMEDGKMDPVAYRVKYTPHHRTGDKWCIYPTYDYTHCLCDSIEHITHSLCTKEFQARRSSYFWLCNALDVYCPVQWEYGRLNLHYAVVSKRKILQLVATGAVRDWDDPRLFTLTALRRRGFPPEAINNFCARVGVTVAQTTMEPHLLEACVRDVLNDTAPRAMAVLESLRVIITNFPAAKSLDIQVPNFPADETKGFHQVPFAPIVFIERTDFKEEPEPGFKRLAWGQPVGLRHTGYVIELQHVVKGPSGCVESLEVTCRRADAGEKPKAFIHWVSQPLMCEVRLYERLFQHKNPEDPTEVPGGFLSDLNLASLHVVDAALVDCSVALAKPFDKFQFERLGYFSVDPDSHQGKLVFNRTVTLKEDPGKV
UniProt P38606, whole entry: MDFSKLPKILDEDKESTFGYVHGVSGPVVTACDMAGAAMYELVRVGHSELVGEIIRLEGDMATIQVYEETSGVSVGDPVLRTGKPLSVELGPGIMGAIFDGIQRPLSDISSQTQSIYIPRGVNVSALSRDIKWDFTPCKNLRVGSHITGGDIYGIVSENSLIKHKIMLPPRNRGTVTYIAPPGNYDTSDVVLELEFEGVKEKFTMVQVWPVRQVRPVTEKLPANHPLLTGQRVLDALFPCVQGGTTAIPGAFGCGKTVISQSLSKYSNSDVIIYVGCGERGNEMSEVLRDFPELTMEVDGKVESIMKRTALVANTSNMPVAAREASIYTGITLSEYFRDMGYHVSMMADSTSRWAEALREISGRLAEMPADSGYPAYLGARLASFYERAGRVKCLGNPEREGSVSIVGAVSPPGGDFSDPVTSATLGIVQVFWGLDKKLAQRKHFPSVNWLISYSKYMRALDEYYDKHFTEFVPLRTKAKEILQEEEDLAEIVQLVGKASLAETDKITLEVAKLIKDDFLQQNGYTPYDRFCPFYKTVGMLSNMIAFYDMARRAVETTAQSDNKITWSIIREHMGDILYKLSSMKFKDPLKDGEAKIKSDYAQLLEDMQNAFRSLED
UniProt P38646: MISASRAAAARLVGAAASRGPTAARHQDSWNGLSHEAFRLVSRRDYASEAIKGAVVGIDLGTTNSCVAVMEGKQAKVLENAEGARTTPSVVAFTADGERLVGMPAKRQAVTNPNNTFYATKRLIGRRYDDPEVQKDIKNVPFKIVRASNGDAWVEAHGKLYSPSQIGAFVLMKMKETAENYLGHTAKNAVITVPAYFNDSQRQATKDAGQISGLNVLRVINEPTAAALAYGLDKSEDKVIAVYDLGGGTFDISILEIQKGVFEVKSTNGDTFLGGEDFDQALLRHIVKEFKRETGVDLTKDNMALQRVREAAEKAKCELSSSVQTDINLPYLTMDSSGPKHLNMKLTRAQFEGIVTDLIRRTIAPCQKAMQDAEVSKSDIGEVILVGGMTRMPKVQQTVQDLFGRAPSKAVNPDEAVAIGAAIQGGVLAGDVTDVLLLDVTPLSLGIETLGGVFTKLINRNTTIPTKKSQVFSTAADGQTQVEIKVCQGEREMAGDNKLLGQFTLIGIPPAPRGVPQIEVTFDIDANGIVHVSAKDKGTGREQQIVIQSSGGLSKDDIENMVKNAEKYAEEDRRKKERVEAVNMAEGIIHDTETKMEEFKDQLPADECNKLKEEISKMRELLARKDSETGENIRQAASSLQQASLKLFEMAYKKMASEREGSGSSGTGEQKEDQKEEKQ
UniProt P43686, whole entry: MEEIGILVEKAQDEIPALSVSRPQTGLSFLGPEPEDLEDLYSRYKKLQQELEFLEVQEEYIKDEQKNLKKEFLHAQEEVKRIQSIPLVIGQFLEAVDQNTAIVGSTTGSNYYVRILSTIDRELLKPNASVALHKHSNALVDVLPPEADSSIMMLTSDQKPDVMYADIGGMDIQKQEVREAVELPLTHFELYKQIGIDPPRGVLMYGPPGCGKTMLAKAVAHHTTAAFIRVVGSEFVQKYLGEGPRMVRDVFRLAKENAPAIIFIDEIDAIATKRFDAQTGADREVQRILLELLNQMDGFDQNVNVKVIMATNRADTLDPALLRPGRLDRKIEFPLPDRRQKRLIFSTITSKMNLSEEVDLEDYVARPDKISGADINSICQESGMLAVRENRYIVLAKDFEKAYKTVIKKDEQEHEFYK
UniProt P41240: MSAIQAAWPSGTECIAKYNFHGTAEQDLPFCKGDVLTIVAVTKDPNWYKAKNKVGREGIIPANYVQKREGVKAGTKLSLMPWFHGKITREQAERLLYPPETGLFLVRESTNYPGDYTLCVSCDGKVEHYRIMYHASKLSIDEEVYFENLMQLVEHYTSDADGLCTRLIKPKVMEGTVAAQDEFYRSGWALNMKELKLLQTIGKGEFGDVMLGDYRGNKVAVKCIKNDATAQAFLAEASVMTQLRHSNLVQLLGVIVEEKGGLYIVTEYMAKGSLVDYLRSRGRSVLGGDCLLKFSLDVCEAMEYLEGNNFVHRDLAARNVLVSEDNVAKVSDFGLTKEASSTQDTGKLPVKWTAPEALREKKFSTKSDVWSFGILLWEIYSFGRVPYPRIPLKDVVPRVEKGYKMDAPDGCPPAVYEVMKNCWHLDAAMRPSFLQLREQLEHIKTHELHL
UniProt P51798: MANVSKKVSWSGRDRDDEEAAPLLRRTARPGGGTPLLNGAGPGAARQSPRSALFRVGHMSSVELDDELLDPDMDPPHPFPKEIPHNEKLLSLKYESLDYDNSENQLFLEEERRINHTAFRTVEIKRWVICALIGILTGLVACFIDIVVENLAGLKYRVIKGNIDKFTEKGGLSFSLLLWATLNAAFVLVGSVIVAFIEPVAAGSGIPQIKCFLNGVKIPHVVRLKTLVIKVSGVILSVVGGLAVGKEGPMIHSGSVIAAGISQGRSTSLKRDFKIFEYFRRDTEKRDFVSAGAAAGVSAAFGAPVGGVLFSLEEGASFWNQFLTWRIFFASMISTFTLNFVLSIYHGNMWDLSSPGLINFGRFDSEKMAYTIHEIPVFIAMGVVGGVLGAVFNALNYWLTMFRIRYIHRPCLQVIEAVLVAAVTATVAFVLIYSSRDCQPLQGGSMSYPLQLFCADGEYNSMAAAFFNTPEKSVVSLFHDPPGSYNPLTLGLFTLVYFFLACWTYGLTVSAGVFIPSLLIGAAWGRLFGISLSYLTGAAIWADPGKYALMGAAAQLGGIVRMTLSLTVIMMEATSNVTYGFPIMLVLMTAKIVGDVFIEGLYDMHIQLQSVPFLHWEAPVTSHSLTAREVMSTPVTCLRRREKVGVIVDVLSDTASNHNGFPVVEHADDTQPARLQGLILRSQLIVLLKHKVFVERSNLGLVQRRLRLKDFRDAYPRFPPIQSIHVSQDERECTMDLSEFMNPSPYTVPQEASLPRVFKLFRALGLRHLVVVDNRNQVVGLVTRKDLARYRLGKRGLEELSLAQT
UniProt P48736: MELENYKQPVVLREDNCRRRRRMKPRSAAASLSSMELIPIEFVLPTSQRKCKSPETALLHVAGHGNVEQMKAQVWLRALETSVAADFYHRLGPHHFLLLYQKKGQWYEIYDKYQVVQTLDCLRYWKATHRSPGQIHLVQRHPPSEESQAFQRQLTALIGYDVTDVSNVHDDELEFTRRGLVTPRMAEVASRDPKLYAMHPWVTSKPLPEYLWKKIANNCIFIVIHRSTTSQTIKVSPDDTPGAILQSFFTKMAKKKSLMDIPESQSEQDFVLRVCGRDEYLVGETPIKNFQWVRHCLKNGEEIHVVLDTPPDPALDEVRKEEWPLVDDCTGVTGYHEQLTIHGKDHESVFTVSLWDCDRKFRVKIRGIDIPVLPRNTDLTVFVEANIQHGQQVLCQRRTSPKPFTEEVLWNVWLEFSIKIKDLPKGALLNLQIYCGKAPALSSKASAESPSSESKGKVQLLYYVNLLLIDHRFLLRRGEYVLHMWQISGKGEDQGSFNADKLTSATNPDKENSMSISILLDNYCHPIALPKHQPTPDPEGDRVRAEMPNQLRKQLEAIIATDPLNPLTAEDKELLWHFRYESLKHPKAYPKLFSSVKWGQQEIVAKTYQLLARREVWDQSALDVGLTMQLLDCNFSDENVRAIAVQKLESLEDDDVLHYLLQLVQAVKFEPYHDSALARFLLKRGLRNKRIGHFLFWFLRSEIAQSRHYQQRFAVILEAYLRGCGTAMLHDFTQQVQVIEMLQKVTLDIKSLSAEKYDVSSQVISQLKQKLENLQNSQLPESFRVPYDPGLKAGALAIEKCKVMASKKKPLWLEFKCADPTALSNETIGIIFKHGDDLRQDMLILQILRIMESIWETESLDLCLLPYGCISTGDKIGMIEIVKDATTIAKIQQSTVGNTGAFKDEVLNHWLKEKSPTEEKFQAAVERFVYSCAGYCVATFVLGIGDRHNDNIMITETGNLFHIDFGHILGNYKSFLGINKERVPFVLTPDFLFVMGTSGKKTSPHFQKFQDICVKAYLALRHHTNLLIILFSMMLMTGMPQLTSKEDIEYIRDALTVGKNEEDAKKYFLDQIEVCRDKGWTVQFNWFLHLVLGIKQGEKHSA
UniProt P50219: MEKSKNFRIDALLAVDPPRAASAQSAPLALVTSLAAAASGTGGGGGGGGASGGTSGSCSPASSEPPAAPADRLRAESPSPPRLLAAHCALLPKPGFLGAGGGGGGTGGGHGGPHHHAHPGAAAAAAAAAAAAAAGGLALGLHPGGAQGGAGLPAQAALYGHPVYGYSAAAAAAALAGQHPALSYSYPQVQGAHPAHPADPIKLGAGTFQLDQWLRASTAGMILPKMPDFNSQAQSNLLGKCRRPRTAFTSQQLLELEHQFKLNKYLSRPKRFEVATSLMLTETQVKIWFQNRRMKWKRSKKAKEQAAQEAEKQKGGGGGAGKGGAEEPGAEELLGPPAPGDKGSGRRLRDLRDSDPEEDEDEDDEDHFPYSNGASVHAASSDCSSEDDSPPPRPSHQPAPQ
UniProt P36542: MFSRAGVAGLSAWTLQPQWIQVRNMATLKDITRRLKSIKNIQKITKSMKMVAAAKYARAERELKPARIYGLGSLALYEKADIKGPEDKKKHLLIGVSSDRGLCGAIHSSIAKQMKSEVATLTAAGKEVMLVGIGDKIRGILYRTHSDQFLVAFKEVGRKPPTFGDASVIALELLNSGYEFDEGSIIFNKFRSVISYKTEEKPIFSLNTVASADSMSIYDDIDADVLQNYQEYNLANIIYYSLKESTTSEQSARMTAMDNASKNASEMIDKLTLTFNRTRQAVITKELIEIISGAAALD
UniProt P50238: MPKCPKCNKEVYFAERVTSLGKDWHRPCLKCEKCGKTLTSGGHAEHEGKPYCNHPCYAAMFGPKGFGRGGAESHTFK

± gives the standard deviation of the averaged measurements. This is a selection; strong and weak results do not stand in their true shares.

Compound in this assay: Nc1ncnc2c1ncn2[C@@H]1O[C@H](COP(=O)(O)OP(=O)(O)OP(=O)(O)O)[C@@H](O)[C@H]1O [adenosine triphosphate]
The assay is described as follows: NP40-soluble protein abundance relative to vehicle (solubility fold change) (ratio); higher = more soluble protein in presence of ATP. The gist of the method: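 In three independent experiments, Jurkat crude lysate made by Dounce homogenisation was treated for 10 min at room temperature and then 3 min at 37 °C with eight concentrations ranging from 0.1 to 10 mM. It was then solubilised with 0.8% NP40 plus benzonase for 60 min at 4 °C and ultracentrifuged. The supernatant was TMT-labelled for LC-MS/MS, and each value is the fold change against the detergent-processed vehicle for the same replicate, using vsn-normalised intensities.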

Turning to EIF4A3 (UniProt P38919), the NP40-soluble protein abundance is, setting by setting: (concentration: 1mM) 1.09 ± 0.17; (concentration: 2mM) 1.06 ± 0.12; (concentration: 4mM) 1.05 ± 0.084; (concentration: 6mM) 0.959 ± 0.18; (concentration: 8mM) 1.09 ± 0.053; (concentration: 10mM) 1.08 ± 0.08.

As for FEN1 (UniProt P39748), the NP40-soluble protein abundance (concentration: 1mM) came out at 0.977 ± 0.063; the NP40-soluble protein abundance (concentration: 2mM) came to 0.919 ± 0.1; the NP40-soluble protein abundance (concentration: 4mM) is 1.01 ± 0.028; the NP40-soluble protein abundance (concentration: 6mM) stood at 1.041 ± 0.0066; the NP40-soluble protein abundance (concentration: 8mM) turned out to be 0.998 ± 0.052; the NP40-soluble protein abundance (concentration: 10mM) was found to be 0.934 ± 0.028.

Take QARS (UniProt P47897): the NP40-soluble protein abundance by setting is: (concentration: 1mM) 1.03 ± 0.05; (concentration: 2mM) 0.976 ± 0.031; (concentration: 4mM) 0.9623 ± 0.0076; (concentration: 6mM) 0.921 ± 0.087; (concentration: 8mM) 1.02 ± 0.051; (concentration: 10mM) 0.969 ± 0.081.

With ATP6V1A (UniProt P38606), the NP40-soluble protein abundance is, setting by setting: (concentration: 1mM) 1.01 ± 0.035; (concentration: 2mM) 0.981 ± 0.021; (concentration: 4mM) 0.969 ± 0.042; (concentration: 6mM) 0.933 ± 0.059; (concentration: 8mM) 0.986 ± 0.033; (concentration: 10mM) 0.97 ± 0.028.

Regarding UniProt P50570-4|P50570, the NP40-soluble protein abundance reads like this: (concentration: 1mM) 1.02 ± 0.045; (concentration: 2mM) 1.03 ± 0.056; (concentration: 4mM) 1.01 ± 0.048; (concentration: 6mM) 0.993 ± 0.11; (concentration: 8mM) 1 ± 0.06; (concentration: 10mM) 1.01 ± 0.034.

Regarding HSPA9 (UniProt P38646), the NP40-soluble protein abundance was found to be 0.886 ± 0.1 (concentration: 1mM); 0.977 ± 0.12 (concentration: 2mM); 0.841 ± 0.073 (concentration: 4mM); 1.03 ± 0.16 (concentration: 6mM); 0.941 ± 0.034 (concentration: 8mM); 0.862 ± 0.1 (concentration: 10mM).

PSMC4 (UniProt P43686): the NP40-soluble protein abundance runs as follows: (concentration: 1mM) 0.9744 ± 0.0054; (concentration: 2mM) 0.92 ± 0.039; (concentration: 4mM) 0.897 ± 0.011; (concentration: 6mM) 0.896 ± 0.089; (concentration: 8mM) 0.932 ± 0.056; (concentration: 10mM) 0.903 ± 0.045.

In the case of CSK (UniProt P41240), the NP40-soluble protein abundance is 1.02 ± 0.07 (concentration: 1mM); 0.99 ± 0.061 (concentration: 2mM); 0.97 ± 0.054 (concentration: 4mM); 0.964 ± 0.093 (concentration: 6mM); 0.995 ± 0.051 (concentration: 8mM); 0.968 ± 0.055 (concentration: 10mM).

For the target RPL27A (UniProt P46776), the NP40-soluble protein abundance came to 0.973 ± 0.051 (concentration: 1mM); 0.881 ± 0.12 (concentration: 2mM); 0.867 ± 0.087 (concentration: 4mM); 0.77 ± 0.14 (concentration: 6mM); 0.633 ± 0.035 (concentration: 8mM); 0.858 ± 0.1 (concentration: 10mM).

As to UniProt P51798 and related entries, the NP40-soluble protein abundance (concentration: 1mM) is 1.04 ± 0.029; the NP40-soluble protein abundance (concentration: 2mM) was determined as 0.97 ± 0.022; the NP40-soluble protein abundance (concentration: 4mM) was 0.999 ± 0.034; the NP40-soluble protein abundance (concentration: 6mM) worked out at 1.01 ± 0.029; the NP40-soluble protein abundance (concentration: 8mM) worked out at 1 ± 0.028; the NP40-soluble protein abundance (concentration: 10mM) stood at 0.983 ± 0.035.

PIK3CG (UniProt P48736): the NP40-soluble protein abundance runs as follows: (concentration: 1mM) 0.962 ± 0.049; (concentration: 2mM) 0.948 ± 0.028; (concentration: 4mM) 1 ± 0.071; (concentration: 6mM) 0.876 ± 0.069; (concentration: 8mM) 0.971 ± 0.057; (concentration: 10mM) 1.01 ± 0.017.

In the case of UniProt P50219 and related entries, the NP40-soluble protein abundance (concentration: 1mM) worked out at 0.812 ± 0.29; the NP40-soluble protein abundance (concentration: 2mM) worked out at 0.8753 ± 0.0032; the NP40-soluble protein abundance (concentration: 4mM) amounted to 0.867 ± 0.029; the NP40-soluble protein abundance (concentration: 6mM) came to 0.844 ± 0.019; the NP40-soluble protein abundance (concentration: 8mM) amounted to 0.8297 ± 0.0026; the NP40-soluble protein abundance (concentration: 10mM) was 0.897 ± 0.085.

Turning to UniProt P36542 and related entries, the NP40-soluble protein abundance worked out at 0.964 ± 0.068 (concentration: 1mM); 0.919 ± 0.049 (concentration: 2mM); 0.89 ± 0.036 (concentration: 4mM); 0.883 ± 0.045 (concentration: 6mM); 0.918 ± 0.026 (concentration: 8mM); 0.899 ± 0.057 (concentration: 10mM).

As for CRIP1 (UniProt P50238), the NP40-soluble protein abundance (concentration: 1mM) came out at 0.97 ± 0.13; the NP40-soluble protein abundance (concentration: 2mM) came to 0.965 ± 0.078; the NP40-soluble protein abundance (concentration: 4mM) worked out at 0.92 ± 0.096; the NP40-soluble protein abundance (concentration: 6mM) was 0.972 ± 0.082; the NP40-soluble protein abundance (concentration: 8mM) was 0.944 ± 0.069; the NP40-soluble protein abundance (concentration: 10mM) is 0.877 ± 0.082.

On to HTT (UniProt P42858), for which the NP40-soluble protein abundance is, setting by setting: (concentration: 1mM) 1.04 ± 0.026; (concentration: 2mM) 1.01 ± 0.017; (concentration: 4mM) 0.986 ± 0.015; (concentration: 6mM) 0.963 ± 0.031; (concentration: 8mM) 0.987 ± 0.013; (concentration: 10mM) 0.978 ± 0.036.
